Reference: the supplement of paper PMC4604168 (melanoma cell lines)
This is one part of the list. Many values rest on one well or one pass, so single values are uncertain.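 Imaging used 1,536-well plates; nuclei positive for cleaved PARP by antibody were divided by total DNA-stained nuclei to yield the apoptosis fraction. Doses for screening kept most cells viable, and cell lines differ markedly in resting and induced cleaved-PARP levels.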

Columns and labels:
Assay in all cases: cleaved PARP positive nuclei fraction relative to DMSO control; melanoma cells; higher = more apoptosis
Conditions in all cases: library dose: low library concentration; 72 h
[1] = tested on: MZ2-MEL
[2] = tested on: MeWo
[3] = tested on: RPMI7951
[4] = tested on: RVH-421
[5] = tested on: SkMel28
[6] = tested on: SkMel2
[7] = tested on: SkMel30
[8] = tested on: UACC62

Compound | cleaved PARP positive nuclei fraction [1] | cleaved PARP positive nuclei fraction [2] | cleaved PARP positive nuclei fraction [3] | cleaved PARP positive nuclei fraction [4] | cleaved PARP positive nuclei fraction [5] | cleaved PARP positive nuclei fraction [6] | cleaved PARP positive nuclei fraction [7] | cleaved PARP positive nuclei fraction [8]
COc1ccc(C2=N[C@@H](c3ccc(Cl)cc3)[C@@H](c3ccc(Cl)cc3)N2C(=O)N2CCNC(=O)C2)c(OC(C)C)c1 [Nutlin-3] + Cc1nc(Nc2ncc(C(=O)Nc3c(C)cccc3Cl)s2)cc(N2CCN(CCO)CC2)n1 [dasatanib] (first compound 0.1 µM, partner dose 0.004 µM) | 93.9% | 70.4% | 151% | 103% | 95.9% | 116% | 50.6% | 177%
CC(=O)O[C@@]12CO[C@@H]1C[C@H](O)[C@@]1(C)C(=O)[C@H](O)C3=C(C)[C@@H](OC(=O)[C@H](O)[C@@H](NC(=O)OC(C)(C)C)c4ccccc4)C[C@@](O)([C@@H](OC(=O)c4ccccc4)[C@H]21)C3(C)C [Docetaxel] + Cc1nc(Nc2ncc(C(=O)Nc3c(C)cccc3Cl)s2)cc(N2CCN(CCO)CC2)n1 [dasatanib] (first compound 0.0001 µM, partner dose 0.004 µM) | 887% | 621% | 355% | 430% | 182% | 1500% | 530% | 680%
C[C@]1(O)C[C@@H](c2nc(-c3ccc4ccc(-c5ccccc5)nc4c3)c3c(N)nccn32)C1 + CS(=O)(=O)CCNCc1ccc(-c2ccc3ncnc(Nc4ccc(OCc5cccc(F)c5)c(Cl)c4)c3c2)o1 [lapatinib] (first compound 0.4 µM, partner dose 0.8 µM) | 33.9% | 78.7% | 102% | 199% | 79.5% | 104% | 26.4% | 84.1%
CCCCCCCCc1ccc(CCC(N)(CO)CO)cc1 [fingolimod] + Cn1c(=O)n(-c2ccc(C(C)(C)C#N)cc2)c2c3cc(-c4cnc5ccccc5c4)ccc3ncc21 [NVP-BEZ235] (first compound 2 µM, partner dose 0.004 µM) | 118% | 115% | 183% | 99.1% | 65.3% | 69.1% | 101% | 282%
CS(=O)(=O)c1ccc(C(=O)Nc2ccc(Cl)c(-c3ccccn3)c2)c(Cl)c1 [vismodegib] + Cn1nnc2c(C(N)=O)ncn2c1=O [temozolomide] (first compound 1 µM, partner dose 2 µM) | 30.9% | 73% | 123% | 92.6% | 78.4% | 90.5% | 106% | 210%
Cn1sc(=O)n(Cc2ccccc2)c1=O + CC(C)C[C@H](NC(=O)[C@H](Cc1ccccc1)NC(=O)c1cnccn1)B(O)O [Bortezomib] (first compound 0.4 µM, partner dose 0.001 µM) | 29.8% | 97.2% | 114% | 90.9% | 127% | 67.3% | 97.2% | 56.7%
CCCCCCCCc1ccc(CCC(N)(CO)CO)cc1 [fingolimod] + Cc1cc(Nc2cc(N3CCN(C)CC3)nc(/C=C/c3ccccc3)n2)n[nH]1 [ENMD2076] (first compound 2 µM, partner dose 0.04 µM) | 121% | 67.8% | 166% | 184% | 212% | 43.4% | 417% | 247%
CC(=O)O[C@@]12CO[C@@H]1C[C@H](O)[C@@]1(C)C(=O)[C@H](O)C3=C(C)[C@@H](OC(=O)[C@H](O)[C@@H](NC(=O)OC(C)(C)C)c4ccccc4)C[C@@](O)([C@@H](OC(=O)c4ccccc4)[C@H]21)C3(C)C [Docetaxel] + CS(=O)(=O)CCNCc1ccc(-c2ccc3ncnc(Nc4ccc(OCc5cccc(F)c5)c(Cl)c4)c3c2)o1 [lapatinib] (first compound 0.0001 µM, partner dose 0.8 µM) | 582% | 1140% | 294% | 216% | 449% | 493% | 435% | 55.3%
NC1(c2ccc(-c3nc4ccn5c(=O)[nH]nc5c4cc3-c3ccccc3)cc2)CCC1 + CC(=O)c1c(C)c2cnc(Nc3ccc(N4CCNCC4)cn3)nc2n(C2CCCC2)c1=O [palbociclib] (first compound 0.4 µM, partner dose 0.04 µM) | 2340% | 88.5% | 133% | 132% | 129% | 26.9% | 138% | 352%
CCCCCCCCc1ccc(CCC(N)(CO)CO)cc1 [fingolimod] + Nc1cccc2c1CN(C1CCC(=O)NC1=O)C2=O [lenalidomide] (first compound 2 µM, partner dose 1 µM) | 146% | 27.8% | 51.3% | 108% | 88.3% | 125% | 70.4% | 78%
Cn1cnc2c(F)c(Nc3ccc(Br)cc3Cl)c(C(=O)NOCCO)cc21 [selumetinib] + Cc1cc(Nc2cc(N3CCN(C)CC3)nc(/C=C/c3ccccc3)n2)n[nH]1 [ENMD2076] (first compound 0.015 µM, partner dose 0.04 µM) | 350% | 111% | 124% | 124% | 41.5% | 9830% | 57.4% | 178%
NC(=O)c1ccc(N(C(N)=O)c2c(F)cccc2F)nc1-c1ccc(F)cc1F + COc1ccc(Cl)c(Nc2nc3ccccc3nc2NS(=O)(=O)c2cccc(NC(=O)C(C)(C)N)c2)c1 [XL147] (first compound 0.4 µM, partner dose 0.8 µM) | 89% | 186% | 68.5% | 273% | 82.6% | 229% | 22% | 158%
CCN(CC)CCNC(=O)c1c(C)[nH]c(/C=C2\C(=O)Nc3ccc(F)cc32)c1C [sunitinib] + O=C(O)[C@@H]1[O][Sb](=[O])([O][Sb]2(=[O])[O][C@H]([C@H](O)CO)[C@H](O)[C@H](C(=O)O)[O]2)[O][C@H]([C@H](O)CO)[C@@H]1O [stibogluconate] (first compound 0.4 µM, partner dose 2 µM) | 67% | 42.9% | 76% | 125% | 90.6% | 55% | 41.4% | 165%
Cn1sc(=O)n(Cc2ccccc2)c1=O + Nc1nc(F)nc2c1ncn2[C@@H]1O[C@H](CO)[C@@H](O)[C@@H]1O [fludarabine] (first compound 0.4 µM, partner dose 0.2 µM) | 99.9% | 390% | 111% | 86.7% | 69% | 335% | 724% | 115%
NC1(c2ccc(-c3nc4ccn5c(=O)[nH]nc5c4cc3-c3ccccc3)cc2)CCC1 + CC(C)C[C@H](NC(=O)[C@H](Cc1ccccc1)NC(=O)c1cnccn1)B(O)O [Bortezomib] (first compound 0.4 µM, partner dose 0.001 µM) | 122% | 24.2% | 141% | 195% | 65.2% | 81.3% | 277% | 226%
Cn1cnc2c(F)c(Nc3ccc(Br)cc3Cl)c(C(=O)NOCCO)cc21 [selumetinib] + Nc1ccn([C@@H]2O[C@H](CO)[C@@H](O)C2(F)F)c(=O)n1 [gemcitabine] (first compound 0.015 µM, partner dose 0.0004 µM) | 53% | 103% | 109% | 215% | 77% | 133% | 120% | 90.1%
NC(=O)c1ccc(N(C(N)=O)c2c(F)cccc2F)nc1-c1ccc(F)cc1F + Cc1cc(Nc2cc(N3CCN(C)CC3)nc(/C=C/c3ccccc3)n2)n[nH]1 [ENMD2076] (first compound 0.4 µM, partner dose 0.04 µM) | 58.6% | 126% | 35.2% | 29% | 95.2% | 115% | 87.3% | 107%
C[C@]1(O)C[C@@H](c2nc(-c3ccc4ccc(-c5ccccc5)nc4c3)c3c(N)nccn32)C1 + CS(=O)(=O)c1ccc(C(=O)Nc2ccc(Cl)c(-c3ccccn3)c2)c(Cl)c1 [vismodegib] (first compound 0.4 µM, partner dose 1 µM) | 92% | 143% | 81.9% | 43.6% | 82.7% | 63.6% | 34.8% | 115%
CCN(CC)CCNC(=O)c1c(C)[nH]c(/C=C2\C(=O)Nc3ccc(F)cc32)c1C [sunitinib] + C[C@]1(c2nc3c(C(N)=O)cccc3[nH]2)CCCN1 [Veliparib] (first compound 0.4 µM, partner dose 1.4 µM) | 113% | 82.1% | 68.3% | 75.4% | 94.8% | 43.9% | 73.4% | 78.1%
CC1(C)CCC(c2ccc(Cl)cc2)=C(CN2CCN(c3ccc(C(=O)NS(=O)(=O)c4ccc(N[C@H](CCN5CCOCC5)CSc5ccccc5)c(S(=O)(=O)C(F)(F)F)c4)cc3)CC2)C1 + Cn1c(=O)n(-c2ccc(C(C)(C)C#N)cc2)c2c3cc(-c4cnc5ccccc5c4)ccc3ncc21 [NVP-BEZ235] (first compound 0.4 µM, partner dose 0.004 µM) | 258% | 483% | 255% | 107% | 83% | 473% | 133% | 146%
C[C@@H](N)c1ccc(C(=O)Nc2ccnc3[nH]ccc23)cc1 + CCCS(=O)(=O)Nc1ccc(F)c(C(=O)c2c[nH]c3ncc(Cl)cc23)c1F [PLX4720] (first compound 0.4 µM, partner dose 0.08 µM) | 50.2% | 56.7% | 135% | 254% | 55.4% | 122% | 111% | 521%
CC(=O)O[C@@]12CO[C@@H]1C[C@H](O)[C@@]1(C)C(=O)[C@H](O)C3=C(C)[C@@H](OC(=O)[C@H](O)[C@@H](NC(=O)OC(C)(C)C)c4ccccc4)C[C@@](O)([C@@H](OC(=O)c4ccccc4)[C@H]21)C3(C)C [Docetaxel] + C[C@]1(c2nc3c(C(N)=O)cccc3[nH]2)CCCN1 [Veliparib] (first compound 0.0001 µM, partner dose 1.4 µM) | 509% | 385% | 329% | 263% | 666% | 1480% | 428% | 677%

Part of the list above, set out differently.
Compound,cleaved PARP positive nuclei fraction [1],cleaved PARP positive nuclei fraction [2],cleaved PARP positive nuclei fraction [3],cleaved PARP positive nuclei fraction [4],cleaved PARP positive nuclei fraction [5],cleaved PARP positive nuclei fraction [6],cleaved PARP positive nuclei fraction [7],cleaved PARP positive nuclei fraction [8]
"Cn1sc(=O)n(Cc2ccccc2)c1=O + CC(C)C[C@H](NC(=O)[C@H](Cc1ccccc1)NC(=O)c1cnccn1)B(O)O [Bortezomib] (first compound 0.4 µM, partner dose 0.001 µM)",29.8%,97.2%,114%,90.9%,127%,67.3%,97.2%,56.7%
"CCCCCCCCc1ccc(CCC(N)(CO)CO)cc1 [fingolimod] + Cc1cc(Nc2cc(N3CCN(C)CC3)nc(/C=C/c3ccccc3)n2)n[nH]1 [ENMD2076] (first compound 2 µM, partner dose 0.04 µM)",121%,67.8%,166%,184%,212%,43.4%,417%,247%
"Cn1cnc2c(F)c(Nc3ccc(Br)cc3Cl)c(C(=O)NOCCO)cc21 [selumetinib] + Nc1ccn([C@@H]2O[C@H](CO)[C@@H](O)C2(F)F)c(=O)n1 [gemcitabine] (first compound 0.015 µM, partner dose 0.0004 µM)",53%,103%,109%,215%,77%,133%,120%,90.1%
"C[C@@H](N)c1ccc(C(=O)Nc2ccnc3[nH]ccc23)cc1 + CCCS(=O)(=O)Nc1ccc(F)c(C(=O)c2c[nH]c3ncc(Cl)cc23)c1F [PLX4720] (first compound 0.4 µM, partner dose 0.08 µM)",50.2%,56.7%,135%,254%,55.4%,122%,111%,521%
